Measured values from the supplement of paper PMC5949888.
Most values lie at the floor of the assay. Slopes are relative: functional sequences can read slightly below zero.

Test system: Saccharomyces cerevisiae PS128 hsf1 delta, HSF1(1-493) fusion
Test: growth estimate (transactivation domain function in HSF1 fusion, heat-shock survival) (a.u. (slope of normalised read count over time)); higher = stronger growth at 37°C, i.e. more transactivation activity
Details: library: random library

Substance	growth estimate
RNSMRL	< -0.25
RNSRCPGTRAMGLRILM	< -0.25
RNSRLFVNYRKVPDESVRWP	< -0.25
RNSRLKPAKDADLGGFRRNC	< -0.25
RNSRTGPTESSVHPPSLRPS	< -0.25
RNSVLYAFRVFQSSLGSVVS	< -0.25
RNSVTKSGLTA	< -0.25
RNT	< -0.25
RNTGAGQERASKGLTLRERL	< -0.25
RNTSAPSYRVRGGLQYGTLT	< -0.25
RNVGGIGKWMCLVTMRWTTA	0.366
RNWHTVKRRDKEPLLLPMTR	< -0.25
RNYGFSLRGMGTDRELMD	< -0.25
RPAGKRTPRRTGAS	< -0.25
RPAT	< -0.25
RPCCG	< -0.25
RPDVGLQQER	< -0.25
RPERGKI	< -0.25
RPETANCYLSGDPRQRHRPC	< -0.25
RPFCSSGSDCCWVEGPGGGP	< -0.25
RPFRFYLLLVERMCLCLHGL	< -0.25
RPGKKLGNCAAGRGCHAAWM	< -0.25
RPGQLT	< -0.25
RPGRSGTRERDLM	< -0.25

3 entries picked at random from those above:
Substance	growth estimate
RNSRLKPAKDADLGGFRRNC	< -0.25
RPERGKI	< -0.25
RNSVTKSGLTA	< -0.25

The results go on:

Substance	growth estimate
RPIENSSYYTRAGARETAPL	< -0.25
RPIGLFSLSVKPTQILSVIG	< -0.25
RPISPAKGQYVPYGCHWTEL	< -0.25
RPKERGGCLVLPTMKRHGEK	< -0.25
RPKTIPRLRPTAHETGAAKP	-0.248
RPLDAGPPRTRRRRYPESRH	< -0.25
RPLLPRFICSITIRCTLYSV	< -0.25
RPLPRNGVTY	< -0.25
RPN	< -0.25
RPPVPTSSRWI	< -0.25
RPRCPLSIRDNVPRRFDTRA	< -0.25
RPRDIVRQ	< -0.25
RPRDWRNCQ	-0.241
RPRHVLGDVGSKVRGTGDPP	< -0.25
RPRVRVVWGNNLDMGGAC	< -0.25
RPSALREEVLDCSRQTSFL	< -0.25
RPSCKAYGKGYN	< -0.25
RPSHRKLKSRMRMHAGVIPH	< -0.25
RPSNLAQSEVGYGDGADTCV	< -0.25
RPSSWVNFSRRTGHGLEHSM	< -0.25
RPT	< -0.25
RPTNLHDRTKPVKARPNRLV	< -0.25
RPTRVWVSTRERT	< -0.25
RPVASSQLKF	< -0.25

Substance	growth estimate
RPVKWLSLGLMYV	< -0.25
RPVSKVGARRRSRWLVMRSA	< -0.25
RPWGKRSEVYYSDLSGVAMA	< -0.25
RPWHLLDFVSLVLRVFRIPV	< -0.25
RPYRLQDYFSCSRPGRE	< -0.25
RPYYSRIAVVHVRSGVRPGP	< -0.25
RQAPPVEVTPLVLELAFRVG	< -0.25
RQAS	< -0.25
RQCRSGRA	< -0.25
RQCVE	< -0.25
RQFENSVSGILWGYLQELDL	-0.222
RQFGESVCAQT	< -0.25
RQGESEAVIALLNNKRVFSA	< -0.25
RQGGEFTAIGYLQHYQAYPC	< -0.25
RQGPNCEAGSPQESPVSLSQ	-0.231
RQGT	< -0.25
RQGTSASRRGFADYGVPIRY	-0.229
RQHAAGGDIVTRLKSH	< -0.25
RQIISGS	< -0.25
RQL	< -0.25
RQLFCTSGVIGWVSTWATER	-0.246
RQLGSNIDRGRTRDKRACGW	< -0.25
RQLVSVPIFVAGSRDNPVKD	< -0.25
